Measured values from the supplement of paper PMC10849652.
The list shows a part of the results.

The chains behind the UniProt entries cited, without tags or fusion partners. Where a name states a change or a piece, a line headed by the entry shows the natural chain unless it says otherwise.
UniProt Q9BT73: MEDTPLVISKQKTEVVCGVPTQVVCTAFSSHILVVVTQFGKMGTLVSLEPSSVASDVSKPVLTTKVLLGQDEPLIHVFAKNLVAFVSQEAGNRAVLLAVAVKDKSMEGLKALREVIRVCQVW
UniProt Q8TBF2: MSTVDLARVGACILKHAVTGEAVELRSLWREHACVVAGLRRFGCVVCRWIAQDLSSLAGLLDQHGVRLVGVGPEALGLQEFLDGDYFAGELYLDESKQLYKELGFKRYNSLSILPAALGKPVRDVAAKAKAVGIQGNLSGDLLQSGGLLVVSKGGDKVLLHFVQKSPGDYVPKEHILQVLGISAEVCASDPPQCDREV
UniProt O14818: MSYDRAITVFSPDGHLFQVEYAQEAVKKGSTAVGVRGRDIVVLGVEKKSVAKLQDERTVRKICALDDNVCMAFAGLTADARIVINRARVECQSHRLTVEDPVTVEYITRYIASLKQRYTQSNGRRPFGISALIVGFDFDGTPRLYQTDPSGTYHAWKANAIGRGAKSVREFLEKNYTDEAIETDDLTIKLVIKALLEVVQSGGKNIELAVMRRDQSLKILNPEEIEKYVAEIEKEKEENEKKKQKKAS
UniProt O75832: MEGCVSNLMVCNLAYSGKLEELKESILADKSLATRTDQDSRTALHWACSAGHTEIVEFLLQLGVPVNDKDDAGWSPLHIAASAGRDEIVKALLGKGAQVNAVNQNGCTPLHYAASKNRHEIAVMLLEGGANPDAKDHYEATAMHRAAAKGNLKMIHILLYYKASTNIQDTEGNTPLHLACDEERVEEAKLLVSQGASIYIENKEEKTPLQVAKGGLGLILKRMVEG
UniProt P49720: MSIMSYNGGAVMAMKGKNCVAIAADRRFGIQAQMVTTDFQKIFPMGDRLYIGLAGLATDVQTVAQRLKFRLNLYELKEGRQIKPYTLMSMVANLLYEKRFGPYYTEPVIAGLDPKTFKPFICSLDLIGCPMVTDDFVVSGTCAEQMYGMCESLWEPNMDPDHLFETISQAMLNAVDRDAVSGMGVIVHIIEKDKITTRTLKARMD
UniProt Q9NRG1: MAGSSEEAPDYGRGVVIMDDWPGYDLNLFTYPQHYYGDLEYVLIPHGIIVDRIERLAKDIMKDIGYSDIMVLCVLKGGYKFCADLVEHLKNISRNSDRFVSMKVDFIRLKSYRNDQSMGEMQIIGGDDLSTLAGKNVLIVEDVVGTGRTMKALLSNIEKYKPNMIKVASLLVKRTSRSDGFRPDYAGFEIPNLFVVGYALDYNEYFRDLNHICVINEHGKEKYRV
UniProt Q15678: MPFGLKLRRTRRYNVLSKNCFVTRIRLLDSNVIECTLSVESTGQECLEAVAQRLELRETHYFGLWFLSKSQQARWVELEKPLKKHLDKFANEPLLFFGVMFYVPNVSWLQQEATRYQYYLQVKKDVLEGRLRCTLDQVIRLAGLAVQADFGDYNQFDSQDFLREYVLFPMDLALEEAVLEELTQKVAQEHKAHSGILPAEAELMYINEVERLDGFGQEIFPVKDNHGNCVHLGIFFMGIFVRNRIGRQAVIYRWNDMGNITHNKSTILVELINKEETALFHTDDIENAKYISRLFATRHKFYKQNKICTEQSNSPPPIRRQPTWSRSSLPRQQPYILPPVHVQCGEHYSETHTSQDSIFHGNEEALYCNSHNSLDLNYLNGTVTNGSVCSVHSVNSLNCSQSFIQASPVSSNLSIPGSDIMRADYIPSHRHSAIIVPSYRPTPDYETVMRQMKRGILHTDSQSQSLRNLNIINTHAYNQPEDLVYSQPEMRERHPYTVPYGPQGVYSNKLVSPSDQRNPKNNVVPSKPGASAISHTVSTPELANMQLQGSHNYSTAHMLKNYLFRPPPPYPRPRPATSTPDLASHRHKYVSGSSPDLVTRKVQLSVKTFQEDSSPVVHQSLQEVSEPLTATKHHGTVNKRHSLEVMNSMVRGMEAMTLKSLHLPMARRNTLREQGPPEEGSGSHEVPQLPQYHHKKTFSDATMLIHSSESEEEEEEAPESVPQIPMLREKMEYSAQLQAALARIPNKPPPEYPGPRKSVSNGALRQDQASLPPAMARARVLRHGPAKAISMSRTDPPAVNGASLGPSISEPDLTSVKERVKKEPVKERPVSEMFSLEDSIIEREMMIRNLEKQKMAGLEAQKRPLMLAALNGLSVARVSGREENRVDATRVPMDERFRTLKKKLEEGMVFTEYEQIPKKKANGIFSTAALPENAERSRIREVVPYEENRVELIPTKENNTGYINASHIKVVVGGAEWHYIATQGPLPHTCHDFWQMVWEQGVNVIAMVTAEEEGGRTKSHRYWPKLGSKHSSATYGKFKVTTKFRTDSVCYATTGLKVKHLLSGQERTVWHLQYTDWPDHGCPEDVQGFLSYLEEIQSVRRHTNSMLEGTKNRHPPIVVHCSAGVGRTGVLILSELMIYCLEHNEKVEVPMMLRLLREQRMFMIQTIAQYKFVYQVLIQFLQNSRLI
UniProt Q16378: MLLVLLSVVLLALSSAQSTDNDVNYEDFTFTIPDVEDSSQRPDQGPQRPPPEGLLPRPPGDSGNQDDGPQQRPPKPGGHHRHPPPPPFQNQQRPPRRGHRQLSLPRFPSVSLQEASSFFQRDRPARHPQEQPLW
UniProt Q9UI38: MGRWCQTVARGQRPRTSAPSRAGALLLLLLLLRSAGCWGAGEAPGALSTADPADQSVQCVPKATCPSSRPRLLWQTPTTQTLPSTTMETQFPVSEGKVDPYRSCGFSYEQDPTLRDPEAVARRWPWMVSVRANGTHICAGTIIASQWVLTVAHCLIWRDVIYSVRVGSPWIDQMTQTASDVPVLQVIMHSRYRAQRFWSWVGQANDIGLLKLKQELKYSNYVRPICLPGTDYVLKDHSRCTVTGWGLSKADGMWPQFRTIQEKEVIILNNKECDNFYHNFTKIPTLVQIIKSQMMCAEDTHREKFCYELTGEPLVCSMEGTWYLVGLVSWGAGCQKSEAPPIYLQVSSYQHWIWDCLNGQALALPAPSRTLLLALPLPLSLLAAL
UniProt Q9BRX8: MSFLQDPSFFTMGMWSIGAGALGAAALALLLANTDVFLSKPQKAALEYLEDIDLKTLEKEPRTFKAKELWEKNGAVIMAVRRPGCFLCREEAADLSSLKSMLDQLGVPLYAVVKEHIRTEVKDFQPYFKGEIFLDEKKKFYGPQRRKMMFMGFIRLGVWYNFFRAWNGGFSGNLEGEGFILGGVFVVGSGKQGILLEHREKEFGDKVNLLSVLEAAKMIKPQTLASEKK
UniProt P17980, whole entry, looked up: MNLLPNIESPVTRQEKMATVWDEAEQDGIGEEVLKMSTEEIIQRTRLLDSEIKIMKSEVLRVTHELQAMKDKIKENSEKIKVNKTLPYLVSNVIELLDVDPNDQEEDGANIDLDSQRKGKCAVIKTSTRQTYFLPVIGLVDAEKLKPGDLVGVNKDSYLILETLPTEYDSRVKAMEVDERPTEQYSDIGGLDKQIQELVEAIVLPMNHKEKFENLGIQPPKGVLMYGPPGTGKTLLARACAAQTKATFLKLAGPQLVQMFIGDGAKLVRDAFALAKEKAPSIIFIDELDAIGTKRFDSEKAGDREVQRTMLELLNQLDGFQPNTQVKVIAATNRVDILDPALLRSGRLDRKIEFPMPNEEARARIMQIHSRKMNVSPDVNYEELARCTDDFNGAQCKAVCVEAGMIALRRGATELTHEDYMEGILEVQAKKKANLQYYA
UniProt Q569H4: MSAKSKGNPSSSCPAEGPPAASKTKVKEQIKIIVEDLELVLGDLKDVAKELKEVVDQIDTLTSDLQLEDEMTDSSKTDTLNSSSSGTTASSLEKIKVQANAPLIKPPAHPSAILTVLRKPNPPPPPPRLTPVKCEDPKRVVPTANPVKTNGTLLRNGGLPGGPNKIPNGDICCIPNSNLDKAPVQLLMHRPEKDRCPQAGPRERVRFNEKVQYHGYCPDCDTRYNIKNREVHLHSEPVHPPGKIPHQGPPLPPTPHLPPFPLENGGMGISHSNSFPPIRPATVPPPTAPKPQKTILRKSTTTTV
UniProt Q8WV60: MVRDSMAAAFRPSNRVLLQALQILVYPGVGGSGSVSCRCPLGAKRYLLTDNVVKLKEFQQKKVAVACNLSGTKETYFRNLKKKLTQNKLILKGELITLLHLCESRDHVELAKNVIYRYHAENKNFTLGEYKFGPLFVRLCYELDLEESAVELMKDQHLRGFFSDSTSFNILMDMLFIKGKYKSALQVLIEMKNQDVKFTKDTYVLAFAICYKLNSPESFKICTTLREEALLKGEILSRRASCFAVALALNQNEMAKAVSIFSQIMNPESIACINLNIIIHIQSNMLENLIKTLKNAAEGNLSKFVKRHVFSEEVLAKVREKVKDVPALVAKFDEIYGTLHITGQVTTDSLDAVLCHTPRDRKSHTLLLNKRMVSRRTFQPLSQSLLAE
UniProt Q15008: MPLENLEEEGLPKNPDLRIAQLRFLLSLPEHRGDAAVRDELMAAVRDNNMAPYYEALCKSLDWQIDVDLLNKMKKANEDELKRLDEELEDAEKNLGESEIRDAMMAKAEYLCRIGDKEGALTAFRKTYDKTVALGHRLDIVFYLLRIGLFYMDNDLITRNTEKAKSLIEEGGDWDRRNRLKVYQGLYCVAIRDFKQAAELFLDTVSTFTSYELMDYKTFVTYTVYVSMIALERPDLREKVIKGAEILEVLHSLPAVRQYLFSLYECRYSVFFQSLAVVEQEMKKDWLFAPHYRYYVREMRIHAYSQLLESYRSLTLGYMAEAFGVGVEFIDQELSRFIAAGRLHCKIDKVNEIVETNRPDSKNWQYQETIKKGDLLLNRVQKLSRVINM
UniProt O00231, whole entry, looked up: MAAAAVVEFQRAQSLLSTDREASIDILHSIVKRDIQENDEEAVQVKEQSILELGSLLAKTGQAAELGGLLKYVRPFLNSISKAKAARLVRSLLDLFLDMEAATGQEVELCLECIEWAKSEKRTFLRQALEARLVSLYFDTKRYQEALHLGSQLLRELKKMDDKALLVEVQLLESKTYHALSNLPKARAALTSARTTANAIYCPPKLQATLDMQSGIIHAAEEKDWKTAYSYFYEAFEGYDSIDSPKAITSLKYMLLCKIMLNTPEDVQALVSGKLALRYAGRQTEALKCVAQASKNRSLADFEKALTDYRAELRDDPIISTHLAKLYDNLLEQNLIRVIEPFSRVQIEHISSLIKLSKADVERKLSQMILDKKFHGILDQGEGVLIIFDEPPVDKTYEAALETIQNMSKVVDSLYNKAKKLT
UniProt P07602: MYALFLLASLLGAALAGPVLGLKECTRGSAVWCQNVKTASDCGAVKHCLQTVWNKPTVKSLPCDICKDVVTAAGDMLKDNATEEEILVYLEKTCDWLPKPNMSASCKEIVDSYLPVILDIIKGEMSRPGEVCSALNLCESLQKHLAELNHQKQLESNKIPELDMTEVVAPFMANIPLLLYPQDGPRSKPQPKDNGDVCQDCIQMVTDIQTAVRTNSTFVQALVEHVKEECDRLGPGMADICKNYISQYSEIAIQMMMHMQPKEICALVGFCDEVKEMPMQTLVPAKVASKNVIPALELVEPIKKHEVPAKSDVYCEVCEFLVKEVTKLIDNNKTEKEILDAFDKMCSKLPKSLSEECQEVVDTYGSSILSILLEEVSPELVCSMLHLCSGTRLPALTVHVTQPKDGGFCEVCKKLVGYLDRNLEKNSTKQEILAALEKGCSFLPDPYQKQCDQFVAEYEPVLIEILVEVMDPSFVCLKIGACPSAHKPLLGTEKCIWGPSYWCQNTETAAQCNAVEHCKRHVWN
UniProt Q86YD1: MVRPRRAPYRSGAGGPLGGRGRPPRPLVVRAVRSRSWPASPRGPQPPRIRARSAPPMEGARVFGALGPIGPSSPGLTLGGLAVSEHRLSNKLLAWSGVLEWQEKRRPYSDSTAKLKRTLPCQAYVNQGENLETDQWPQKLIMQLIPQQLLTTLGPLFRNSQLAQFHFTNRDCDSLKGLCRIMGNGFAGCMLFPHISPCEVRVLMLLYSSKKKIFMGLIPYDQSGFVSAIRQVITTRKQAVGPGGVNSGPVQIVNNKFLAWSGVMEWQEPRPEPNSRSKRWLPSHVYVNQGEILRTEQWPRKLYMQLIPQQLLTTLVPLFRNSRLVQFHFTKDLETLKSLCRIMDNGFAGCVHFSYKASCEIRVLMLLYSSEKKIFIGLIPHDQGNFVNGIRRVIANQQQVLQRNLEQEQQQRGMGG
UniProt Q12974: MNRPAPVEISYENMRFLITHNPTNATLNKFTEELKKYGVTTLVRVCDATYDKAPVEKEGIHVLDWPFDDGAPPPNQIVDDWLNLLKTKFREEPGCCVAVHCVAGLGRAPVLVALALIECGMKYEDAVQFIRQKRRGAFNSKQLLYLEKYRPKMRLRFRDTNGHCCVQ
UniProt O95456: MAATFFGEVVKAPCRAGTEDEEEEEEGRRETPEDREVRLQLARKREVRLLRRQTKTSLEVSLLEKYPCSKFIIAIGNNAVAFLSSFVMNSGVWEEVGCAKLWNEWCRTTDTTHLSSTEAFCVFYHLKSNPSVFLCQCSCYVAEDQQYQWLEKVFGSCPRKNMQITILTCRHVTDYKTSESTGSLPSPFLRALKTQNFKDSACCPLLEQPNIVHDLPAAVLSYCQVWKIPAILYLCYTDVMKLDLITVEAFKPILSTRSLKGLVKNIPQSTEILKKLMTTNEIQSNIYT

What was measured:
Test in all cases: log2 fold change, soluble protein after heating vs DMSO (PISA); higher = thermal stabilisation; K562 lysate, 10 uM; active = over 0.2 and 3.5 SD of the protein, either way, in both replicates (recomputed)
[1] = compound: NCC(=O)Nc1ccc(-n2nc(C(F)(F)F)cc2-c2ccc3c(ccc4ccccc43)c2)cc1
Outline: (§1)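 To prepare the extract, K562 pellets were dounce-homogenised in PBS pH 7.4 with 1 mM MgCl2, giving crude material at 1 mg/mL protein. This was treated with 10 μM compound for 30 min, then heated in aliquots for 3 min over 48°C-58°C before pooling and addition of NP-40 to 0.5% at 4°C. Centrifugation at 21,000xg for 90 min left soluble protein in the supernatant, which TMTpro 16plex LC-MS/MS quantified with equalised channel sums. Results are log-two fold changes in thermal stability compared with solvent controls, from duplicates.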

vorinostat = compound: O=C(CCCCCCC(=O)Nc1ccccc1)NO [vorinostat]
Outline: as §1

silmitasertib = compound: O=C(O)c1ccc2c(c1)nc(Nc1cccc(Cl)c1)c1ccncc12 [silmitasertib]
Outline: as §1

[2] = compound: O=C1NC(=O)C(c2cnc3ccccn23)=C1c1cn2c3c(cc(F)cc13)CN(C(=O)N1CCCCC1)CC2
Outline: as §1

entospletinib = compound: c1cn2cc(-c3ccc4cn[nH]c4c3)nc(Nc3ccc(N4CCOCC4)cc3)c2n1 [entospletinib]
Outline: as §1

Measured: log2 fold change

PSMG3 (UniProt Q9BT73)
inactive: [1] -0.022 | vorinostat 0.06 | silmitasertib 0.007 | [2] -0.007 | entospletinib 0.039

PRXL2B isoform 3 (UniProt Q8TBF2)
inactive: [1] 0.094 | vorinostat -0.165 | silmitasertib 0.029 | [2] 0.07 | entospletinib 0.01

PSMA7 (UniProt O14818)
inactive: [1] -0.011 | vorinostat 0.113 | silmitasertib -0.026 | [2] -0.023 | entospletinib 0.004

PSMD10 (UniProt O75832)
inactive: [1] -0.035 | vorinostat 0.03 | silmitasertib -0.032 | [2] 0.032 | entospletinib 0.003

PSMB3 (UniProt P49720)
inactive: [1] -0.014 | vorinostat 0.126 | silmitasertib -0.025 | [2] -0.021 | entospletinib 0.03

PRTFDC1 (UniProt Q9NRG1)
inactive: [1] -0.011 | vorinostat 0.114 | silmitasertib -0.005 | [2] -0.038 | entospletinib 0.026

PTPN14 (UniProt Q15678)
inactive: [2] 0.1 | entospletinib 0.089

PSEN2 (UniProt P49810)
inactive: [2] -0.049 | entospletinib -0.052

PRR4 (UniProt Q16378)
inactive: [1] 0.009 | vorinostat 0.229 | silmitasertib -0.176 | entospletinib 0.302

PRSS50 (UniProt Q9UI38)
inactive: entospletinib -0.001

PRR12 (UniProt Q9ULL5)
inactive: [2] -0.008

PSMF1 (UniProt Q5QPM7)
inactive: [1] 0.009 | [2] -0.023 | entospletinib -0.118

PTPA (UniProt A6PVN8)
inactive: entospletinib 0.212

PRRC2B (UniProt H0Y412)
inactive: vorinostat -0.045 | silmitasertib -0.083

PRXL2A (UniProt Q9BRX8)
inactive: vorinostat 0.163 | silmitasertib -0.169

PRRC2C isoform 7 (UniProt Q9Y520)
inactive: [1] 0.035 | vorinostat 0.046 | silmitasertib -0.035 | [2] -0.012 | entospletinib -0.013

PSMC3 (UniProt P17980)
inactive: [1] 0.033 | vorinostat -0.036 | silmitasertib 0.007 | [2] 0.005 | entospletinib -0.023

PRR16 (UniProt Q569H4)
inactive: [2] 0.107

PTCD2 (UniProt Q8WV60)
inactive: [1] 0.055 | vorinostat -0.38 | silmitasertib -0.037 | [2] 0.078 | entospletinib -0.052

PSMD6 (UniProt Q15008)
inactive: [2] -0.052

PSMD11 (UniProt O00231)
inactive: [1] 0.015 | vorinostat 0.015 | silmitasertib 0.006 | [2] 0.032 | entospletinib 0.012

PRPF8 (UniProt Q6P2Q9)
inactive: [1] -0.013 | vorinostat -0.032 | silmitasertib 0.044 | [2] 0.013 | entospletinib -0.004

PSMD9 (UniProt O00233)
inactive: [1] 0.011 | vorinostat -0.019 | silmitasertib -0.007 | [2] -0.012 | entospletinib 0.025

PSIP1 (UniProt V9GYT7)
inactive: vorinostat 0.197 | silmitasertib -0.084 | [2] 0.022

PSAP isoform 2 (UniProt P07602)
inactive: vorinostat 0.406 | silmitasertib 0.124

PTOV1 (UniProt Q86YD1)
inactive: [1] 0.038 | [2] -0.139

Retrieved one by one from the list above (two):
PRXL2A (UniProt Q9BRX8)
inactive: vorinostat 0.163 | silmitasertib -0.169

PRPF8 (UniProt Q6P2Q9)
inactive: [1] -0.013 | vorinostat -0.032 | silmitasertib 0.044 | [2] 0.013 | entospletinib -0.004

(cont.)

PTP4A2 (UniProt Q12974)
inactive: [1] -0.042 | vorinostat 0.004 | silmitasertib -0.02 | [2] -0.085 | entospletinib 0.043

PSMA7 isoform 2 (UniProt O14818)
inactive: [2] -0.314 | entospletinib -0.057

PSMG1 (UniProt O95456)
inactive: [1] -0.003 | vorinostat 0.049 | silmitasertib 0.038 | [2] -0.004 | entospletinib -0.011

PSMA7 (UniProt H0Y586)
inactive: vorinostat 0.015 | silmitasertib -0.167 | [2] 0.057
